The campaign covered roughly 52,000 sequences. About 210 (0.4%) were called active.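 The calls were made as follows: active = gene whose silencing raises cell survival under the drug, median off-target-corrected z-score across its silencing RNAs 2 or more; inactive = the rest.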 This is one part of the list.
Test: Resistance to Poly (ADP-Ribose) Polymerase inhibitor: Gene Identification via Genome-wide siRNA Screen
Details: mouse BRCA2 R2336H ES cells, olaparib, CellTiter-Glo viability; stronger effect = higher value
Summary of the method: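 Genome-wide siRNA screen (3 siRNAs/gene, 20 nM) in mouse ES cells carrying hypomorphic BRCA2 R2336H; olaparib 500 nM added 48 h post-transfection, CellTiter-Glo viability 72 h later. Normalized to plate-median negative control; MAD z-scores, gene median, seed-adjusted.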

| Sequence | z-score |
| --- | --- |
| CCUCUUGAGUCGAGAUAUGTT against D430033N04Rik | inactive: 0.0348 |
| GGGCCAAAUAUCAUAAACUTT against Strn4 | inactive: 0.161 |
| GGAAGGAAGAGAAAAACAATT against D11Ertd730e | inactive: -1.34 |
| GGCUAAUACAUAAAGUAGUTT against 4930515G01Rik | inactive: -0.125 |
| CGAAUAUGGUAUUCACUCATT against 9530098N22Rik | inactive: 0.473 |
| CGUGAACAGGUGGUUGGACTT against Hspa14 | inactive: -0.293 |
| GCUAAAUUCAGCUGAGGCUTT against 4932416A15 | inactive: -0.804 |
| GGAUGGAAUGCAGAAACGATT against Pcp2 | inactive: -0.704 |
| GCCCUGGCAUGCUAACAAATT against Prpf3 | inactive: -1.46 |
| GCCCGAGGUCAUCCUUUUATT against Cbx4 | inactive: 0.496 |
| GGAAAAACAACCAGAUUGATT against 2810439F02Rik | inactive: -0.0652 |
| CCCAAAGCCCUUUUAAACUTT against Hmbs | inactive: 1.08 |
| GCCUAAACUACCCUUAUAGTT against Ocln | inactive: -0.892 |
| GCCAAAAUAAUCCUUGGGATT against 1600015I10Rik | inactive: -0.983 |
| GCGGUUCACUAUCUCCCUATT against Khsrp | inactive: -1.63 |
| GGAGAUCGACCACUUCUUCTT against Olfr1395 | inactive: 0.6 |
| GGAGAAUCAGGGUAGCACATT against D18Wsu98e | inactive: 1.34 |
| GGUACAAAAGAAAACUGCUTT against Slbp | inactive: -0.455 |
| CCCUAACCUCAUUUCAUGUTT against V1rd1 | inactive: -0.398 |
| GGCCGUGUGUUUCUGUAACTT against Matk | inactive: -0.417 |
| GCAUUCAAAAUAGCUCUAUTT against Calb1 | inactive: 0.738 |
| GCCUAUUCGAAUUUGGGAATT against Ogt | inactive: -1.86 |
| UGCUGUUAUCUGCUUACAGTT against 1110002E23Rik | inactive: 1.26 |
| GGGCACUGAGUCUCCAAAATT against Rhbdl6 | inactive: -1.39 |
| GCAUGUUUAGAACUCGCUCTT against Zfp87 | inactive: 1.4 |
| GGGAGAGAUGUGGAAAUCUTT against Rac2 | inactive: 1.43 |
| GCAAGUGGUAAUGGUGACCTT against Tex15 | inactive: -0.249 |
| GGACCCAAGAAGAUGACGUTT against 0610010K14Rik | inactive: 1.44 |
| GGUGGGCACACUUAGGUUUTT against BC030183 | inactive: -0.339 |

Two entries drawn at random from those above, as already listed:

| Sequence | z-score |
| --- | --- |
| GGAUGGAAUGCAGAAACGATT against Pcp2 | inactive: -0.704 |
| CGAAUAUGGUAUUCACUCATT against 9530098N22Rik | inactive: 0.473 |

— PubChem BioAssay AID1347423 (Functional Genomics Laboratory (NCATS/FGL), 2020)
